The text below walks through data of paper PMC4870272.

Amino acid sequences for entries named in this document (tags omitted).
UniProt P70444: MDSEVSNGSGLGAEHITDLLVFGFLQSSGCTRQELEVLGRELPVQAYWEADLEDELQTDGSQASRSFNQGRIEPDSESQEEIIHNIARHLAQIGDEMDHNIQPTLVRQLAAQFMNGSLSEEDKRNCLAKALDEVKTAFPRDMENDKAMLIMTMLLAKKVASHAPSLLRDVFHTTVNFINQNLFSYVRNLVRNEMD

Test [1] deals with Bid (BH3-interacting domain death agonist) (mouse (endogenous in BV-2 cells, primary mixed glia and astrocytes)) (UniProt P70444). The test can be described thus: co-IP; Bid immunoprecipitated from RIPA lysates of purified wild-type and bid-/- astrocytes stimulated with LPS (100 ng/ml) for 1 and 4 h; blot for TRAF6.
For test [2] the target is unchanged. The experiment in a line: co-IP; Bid immunoprecipitated (5 ug antibody on Dynabeads Protein G, 100 ug protein, 2 h at room temperature) from RIPA lysates of BV-2 cells (LPS 1 ug/ml, 15 min or 1 h) and of primary mixed glia (LPS 100 ng/ml, 1 and 4 h); blot for TRAF6; controls: IgG and bid-deficient glia.

No constants are given. Whether binding was seen depends on the method and setting. Binding seen in cells or lysates may run through a third protein. Some results given as binding are weak or reduced against the parent protein; the word gives no strength.

B1: tumor necrosis factor receptor associated factor 6 (TRAF6) (protein, UniProt P70196 1-530)
chain: MSLLNCENSCGSSQSSSDCCAAMAASCSAAVKDDSVSGSASTGNLSSSFMEEIQGYDVEFDPPLESKYECPICLMALREAVQTPCGHRFCKACIIKSIRDAGHKCPVDNEILLENQLFPDNFAKREILSLTVKCPNKGCLQKMELRHLEDHQVHCEFALVNCPQCQRPFQKCQVNTHIIEDCPRRQVSCVNCAVSMAYEEKEIHDQSCPLANIICEYCGTILIREQMPNHYDLDCPTAPIPCTFSVFGCHEKMQRNHLARHLQENTQLHMRLLAQAVHNVNLALRPCDAASPSRGCRPEDPNYEETIKQLESRLVRQDHQIRELTAKMETQSMYVGELKRTIRTLEDKVAEMEAQQCNGIYIWKIGNFGMHLKSQEEERPVVIHSPGFYTGRPGYKLCMRLHLQLPTAQRCANYISLFVHTMQGEYDSHLPWPFQGTIRLTILDQSEALIRQNHEEVMDAKPELLAFQRPTIPRNPKGFGYVTFMHLEALRQGTFIKDDTLLVRCEVSTRFDMGGLRKEGFQPRSTDAGV
For B1, the binding result in test [1] and in test [2] was “binds” throughout.
